Test results taken from the supplement of paper PMC10849652.
This is one part of the list.

Protein sequences, listed by entry. Tags and fused reporters are not part of them. Lines headed by an entry give the natural chain unless they say otherwise; changes in a name come on top.
UniProt P35270: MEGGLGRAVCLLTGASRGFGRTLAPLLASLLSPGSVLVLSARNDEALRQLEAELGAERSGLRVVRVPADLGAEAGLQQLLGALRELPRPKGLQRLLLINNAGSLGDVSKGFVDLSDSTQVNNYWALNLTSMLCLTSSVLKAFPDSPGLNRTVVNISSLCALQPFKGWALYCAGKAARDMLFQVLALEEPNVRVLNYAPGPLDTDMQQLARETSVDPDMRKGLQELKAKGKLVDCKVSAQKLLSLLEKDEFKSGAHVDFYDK
UniProt P11277, whole entry, looked up: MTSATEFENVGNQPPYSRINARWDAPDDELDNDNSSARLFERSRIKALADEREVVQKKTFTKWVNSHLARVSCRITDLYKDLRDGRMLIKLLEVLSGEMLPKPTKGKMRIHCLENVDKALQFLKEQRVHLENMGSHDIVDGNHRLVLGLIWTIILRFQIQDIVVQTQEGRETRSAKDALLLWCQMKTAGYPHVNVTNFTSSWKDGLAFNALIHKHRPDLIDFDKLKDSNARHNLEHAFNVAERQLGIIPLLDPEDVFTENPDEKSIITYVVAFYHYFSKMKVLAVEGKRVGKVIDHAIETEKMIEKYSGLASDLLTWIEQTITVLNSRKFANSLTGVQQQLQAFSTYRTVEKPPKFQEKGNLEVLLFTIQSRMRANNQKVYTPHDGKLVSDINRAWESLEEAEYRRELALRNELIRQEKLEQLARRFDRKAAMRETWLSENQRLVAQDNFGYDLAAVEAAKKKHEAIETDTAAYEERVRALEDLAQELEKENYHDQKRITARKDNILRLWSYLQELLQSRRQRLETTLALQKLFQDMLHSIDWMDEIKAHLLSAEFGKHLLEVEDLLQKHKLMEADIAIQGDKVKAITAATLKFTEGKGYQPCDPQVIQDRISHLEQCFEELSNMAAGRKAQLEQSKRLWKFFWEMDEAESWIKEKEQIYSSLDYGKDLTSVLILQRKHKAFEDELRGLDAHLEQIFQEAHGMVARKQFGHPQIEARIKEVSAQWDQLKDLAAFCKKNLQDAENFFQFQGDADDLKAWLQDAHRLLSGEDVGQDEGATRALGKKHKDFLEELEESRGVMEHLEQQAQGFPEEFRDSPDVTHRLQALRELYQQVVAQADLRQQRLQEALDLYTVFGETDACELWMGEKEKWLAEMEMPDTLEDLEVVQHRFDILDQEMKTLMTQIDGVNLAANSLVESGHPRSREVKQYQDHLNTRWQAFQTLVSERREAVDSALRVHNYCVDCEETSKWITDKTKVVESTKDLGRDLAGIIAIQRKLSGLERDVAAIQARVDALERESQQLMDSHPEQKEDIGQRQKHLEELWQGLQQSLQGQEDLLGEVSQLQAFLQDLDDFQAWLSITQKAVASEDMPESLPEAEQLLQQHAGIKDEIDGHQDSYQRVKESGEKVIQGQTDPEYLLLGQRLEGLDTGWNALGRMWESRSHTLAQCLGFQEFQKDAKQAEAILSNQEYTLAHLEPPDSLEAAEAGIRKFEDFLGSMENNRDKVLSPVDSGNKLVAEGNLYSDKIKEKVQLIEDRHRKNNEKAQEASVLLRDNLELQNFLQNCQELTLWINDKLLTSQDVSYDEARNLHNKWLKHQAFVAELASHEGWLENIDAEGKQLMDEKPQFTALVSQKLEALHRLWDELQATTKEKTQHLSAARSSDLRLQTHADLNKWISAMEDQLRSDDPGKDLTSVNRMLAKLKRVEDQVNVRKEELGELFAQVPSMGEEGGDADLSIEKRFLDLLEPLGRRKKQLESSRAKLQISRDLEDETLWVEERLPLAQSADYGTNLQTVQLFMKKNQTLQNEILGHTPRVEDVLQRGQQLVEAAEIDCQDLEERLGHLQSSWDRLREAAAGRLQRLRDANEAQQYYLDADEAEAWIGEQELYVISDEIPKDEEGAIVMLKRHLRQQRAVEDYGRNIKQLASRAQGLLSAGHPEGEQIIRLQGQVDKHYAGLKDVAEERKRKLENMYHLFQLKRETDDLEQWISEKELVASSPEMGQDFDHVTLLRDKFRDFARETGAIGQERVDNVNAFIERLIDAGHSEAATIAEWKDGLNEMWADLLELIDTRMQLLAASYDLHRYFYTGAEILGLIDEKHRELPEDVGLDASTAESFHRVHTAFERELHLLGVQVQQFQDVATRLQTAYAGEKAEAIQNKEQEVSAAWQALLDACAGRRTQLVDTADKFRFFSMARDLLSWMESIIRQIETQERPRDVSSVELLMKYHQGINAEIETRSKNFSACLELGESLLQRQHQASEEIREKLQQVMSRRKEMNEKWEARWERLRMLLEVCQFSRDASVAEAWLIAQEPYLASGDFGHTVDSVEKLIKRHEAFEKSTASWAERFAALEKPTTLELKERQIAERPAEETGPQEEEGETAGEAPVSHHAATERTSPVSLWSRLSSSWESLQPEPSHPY
UniProt Q8NCJ5: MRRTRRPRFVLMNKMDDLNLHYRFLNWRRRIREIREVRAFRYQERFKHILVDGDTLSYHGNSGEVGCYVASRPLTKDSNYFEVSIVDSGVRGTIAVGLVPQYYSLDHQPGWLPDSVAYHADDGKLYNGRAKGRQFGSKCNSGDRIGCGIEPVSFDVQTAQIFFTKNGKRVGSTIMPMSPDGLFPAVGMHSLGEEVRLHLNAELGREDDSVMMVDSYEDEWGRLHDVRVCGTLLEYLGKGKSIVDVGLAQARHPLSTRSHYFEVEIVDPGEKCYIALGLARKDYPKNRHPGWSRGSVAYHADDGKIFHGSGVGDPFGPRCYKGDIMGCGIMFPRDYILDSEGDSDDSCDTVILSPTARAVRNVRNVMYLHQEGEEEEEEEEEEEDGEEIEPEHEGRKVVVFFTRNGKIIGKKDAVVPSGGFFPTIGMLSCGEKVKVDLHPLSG
UniProt O75177, whole entry, looked up: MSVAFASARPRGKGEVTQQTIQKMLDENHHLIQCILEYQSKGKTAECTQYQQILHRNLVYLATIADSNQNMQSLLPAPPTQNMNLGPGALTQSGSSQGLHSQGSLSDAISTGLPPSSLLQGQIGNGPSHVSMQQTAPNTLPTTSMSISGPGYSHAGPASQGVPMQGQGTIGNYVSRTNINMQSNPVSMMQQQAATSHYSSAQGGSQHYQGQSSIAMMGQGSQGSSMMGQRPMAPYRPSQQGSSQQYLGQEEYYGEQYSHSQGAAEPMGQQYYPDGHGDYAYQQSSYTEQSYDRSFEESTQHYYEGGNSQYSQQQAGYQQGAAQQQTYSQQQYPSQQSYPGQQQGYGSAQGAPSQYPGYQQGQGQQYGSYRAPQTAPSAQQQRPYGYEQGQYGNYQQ
UniProt Q8N3U4: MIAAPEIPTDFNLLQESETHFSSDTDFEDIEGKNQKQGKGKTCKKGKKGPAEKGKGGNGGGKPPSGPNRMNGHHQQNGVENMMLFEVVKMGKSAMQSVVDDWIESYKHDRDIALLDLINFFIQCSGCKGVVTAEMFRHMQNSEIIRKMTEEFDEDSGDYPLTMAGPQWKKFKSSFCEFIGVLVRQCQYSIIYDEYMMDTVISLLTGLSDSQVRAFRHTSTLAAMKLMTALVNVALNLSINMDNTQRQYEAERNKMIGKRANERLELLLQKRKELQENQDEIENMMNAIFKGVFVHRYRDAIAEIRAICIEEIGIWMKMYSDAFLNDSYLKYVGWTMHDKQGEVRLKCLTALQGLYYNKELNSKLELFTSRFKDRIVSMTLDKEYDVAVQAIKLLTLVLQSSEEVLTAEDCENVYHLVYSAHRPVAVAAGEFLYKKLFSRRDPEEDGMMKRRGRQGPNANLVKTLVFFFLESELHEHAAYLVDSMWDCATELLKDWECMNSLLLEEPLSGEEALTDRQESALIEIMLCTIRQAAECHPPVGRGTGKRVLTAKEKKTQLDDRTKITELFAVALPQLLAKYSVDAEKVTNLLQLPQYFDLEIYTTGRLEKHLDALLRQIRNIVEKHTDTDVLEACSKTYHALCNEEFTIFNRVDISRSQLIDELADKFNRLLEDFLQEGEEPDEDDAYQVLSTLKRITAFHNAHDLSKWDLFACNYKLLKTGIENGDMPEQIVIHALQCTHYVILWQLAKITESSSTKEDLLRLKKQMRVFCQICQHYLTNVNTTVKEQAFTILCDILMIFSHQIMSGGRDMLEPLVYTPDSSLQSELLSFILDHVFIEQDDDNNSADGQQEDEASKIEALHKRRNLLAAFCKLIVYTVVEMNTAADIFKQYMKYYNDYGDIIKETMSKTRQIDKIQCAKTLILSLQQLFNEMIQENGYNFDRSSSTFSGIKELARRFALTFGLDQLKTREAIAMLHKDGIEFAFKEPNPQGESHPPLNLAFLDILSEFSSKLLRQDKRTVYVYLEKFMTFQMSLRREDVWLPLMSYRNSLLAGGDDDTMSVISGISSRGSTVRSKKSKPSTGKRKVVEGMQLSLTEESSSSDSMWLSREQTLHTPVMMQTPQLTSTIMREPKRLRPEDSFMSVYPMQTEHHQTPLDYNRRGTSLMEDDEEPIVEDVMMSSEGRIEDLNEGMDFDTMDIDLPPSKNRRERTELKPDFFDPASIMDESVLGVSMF
UniProt Q11201: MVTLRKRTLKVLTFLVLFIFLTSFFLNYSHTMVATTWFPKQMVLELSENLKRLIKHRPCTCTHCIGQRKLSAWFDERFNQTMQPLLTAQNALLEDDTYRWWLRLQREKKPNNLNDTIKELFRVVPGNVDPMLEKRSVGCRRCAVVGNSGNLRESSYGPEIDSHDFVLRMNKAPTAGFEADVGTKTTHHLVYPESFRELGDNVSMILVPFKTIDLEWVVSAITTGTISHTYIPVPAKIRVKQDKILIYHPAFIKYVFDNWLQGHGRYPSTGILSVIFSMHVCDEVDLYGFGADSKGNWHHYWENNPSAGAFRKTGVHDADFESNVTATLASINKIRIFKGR
UniProt P36956: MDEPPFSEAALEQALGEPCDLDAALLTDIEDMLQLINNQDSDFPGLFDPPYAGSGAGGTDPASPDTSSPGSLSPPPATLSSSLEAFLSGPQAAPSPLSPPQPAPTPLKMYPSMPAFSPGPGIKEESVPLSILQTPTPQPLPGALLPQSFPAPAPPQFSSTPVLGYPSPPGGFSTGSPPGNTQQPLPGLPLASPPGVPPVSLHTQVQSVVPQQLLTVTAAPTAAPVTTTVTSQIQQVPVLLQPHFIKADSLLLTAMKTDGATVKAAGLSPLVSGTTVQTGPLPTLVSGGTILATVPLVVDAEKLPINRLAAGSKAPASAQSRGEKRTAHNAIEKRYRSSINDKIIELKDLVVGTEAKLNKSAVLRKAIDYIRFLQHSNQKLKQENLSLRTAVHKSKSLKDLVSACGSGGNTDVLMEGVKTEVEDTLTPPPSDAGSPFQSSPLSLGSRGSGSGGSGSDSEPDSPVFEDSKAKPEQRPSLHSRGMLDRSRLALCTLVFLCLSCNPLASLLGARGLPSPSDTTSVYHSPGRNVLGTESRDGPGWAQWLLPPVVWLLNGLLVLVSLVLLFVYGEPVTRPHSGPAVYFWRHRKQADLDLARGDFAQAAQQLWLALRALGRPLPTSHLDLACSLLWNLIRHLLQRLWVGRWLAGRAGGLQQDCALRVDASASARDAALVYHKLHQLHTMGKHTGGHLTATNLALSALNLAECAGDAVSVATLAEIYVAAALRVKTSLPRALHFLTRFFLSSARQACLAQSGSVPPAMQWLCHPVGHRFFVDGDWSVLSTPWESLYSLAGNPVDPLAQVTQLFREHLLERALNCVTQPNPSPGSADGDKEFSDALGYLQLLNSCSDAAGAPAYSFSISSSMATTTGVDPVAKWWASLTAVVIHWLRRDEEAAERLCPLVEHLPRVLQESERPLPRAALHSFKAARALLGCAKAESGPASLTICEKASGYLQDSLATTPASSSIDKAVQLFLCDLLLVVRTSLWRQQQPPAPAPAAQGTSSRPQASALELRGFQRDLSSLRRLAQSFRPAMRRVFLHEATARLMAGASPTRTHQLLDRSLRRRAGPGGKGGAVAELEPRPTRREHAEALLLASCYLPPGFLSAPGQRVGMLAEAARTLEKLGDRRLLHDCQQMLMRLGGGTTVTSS
UniProt O95793: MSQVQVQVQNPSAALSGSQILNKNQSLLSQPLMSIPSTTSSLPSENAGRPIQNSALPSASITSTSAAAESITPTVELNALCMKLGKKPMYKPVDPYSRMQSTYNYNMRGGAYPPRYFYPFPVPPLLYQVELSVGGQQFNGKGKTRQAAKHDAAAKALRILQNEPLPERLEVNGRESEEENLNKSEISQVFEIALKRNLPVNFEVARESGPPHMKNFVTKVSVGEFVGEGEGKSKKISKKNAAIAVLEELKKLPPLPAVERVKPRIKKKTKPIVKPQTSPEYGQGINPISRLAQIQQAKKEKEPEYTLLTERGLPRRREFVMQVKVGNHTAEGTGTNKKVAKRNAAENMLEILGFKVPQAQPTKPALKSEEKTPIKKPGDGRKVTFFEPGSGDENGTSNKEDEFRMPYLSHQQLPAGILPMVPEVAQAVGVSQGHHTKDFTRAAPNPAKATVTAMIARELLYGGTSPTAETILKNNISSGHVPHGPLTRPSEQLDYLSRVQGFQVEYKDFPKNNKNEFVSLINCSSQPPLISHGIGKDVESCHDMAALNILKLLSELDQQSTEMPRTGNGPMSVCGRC

How the values were obtained:
Assay in all cases: log2 fold change, soluble protein after heating vs DMSO (PISA); higher = thermal stabilisation; K562 lysate, 10 uM; active = over 0.2 and 3.5 SD of the protein, either way, in both replicates (recomputed)
[1] = compound: NCC(=O)Nc1ccc(-n2nc(C(F)(F)F)cc2-c2ccc3c(ccc4ccccc43)c2)cc1
In short: (§1)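 Dounce homogenisation of K562 pellets in PBS pH 7.4 with 1 mM MgCl2 produced a crude extract, used at 1 mg/mL protein. Exposure to 10 μM compound lasted 30 min, and aliquots were then heated for 3 min across 48°C-58°C, pooled and brought to 0.5% NP-40 at 4°C. The supernatant after 21,000xg for 90 min was quantified by TMTpro 16plex LC-MS/MS with channel sums equalised. Duplicate values are given as log-two fold change in thermal stability relative to solvent controls.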

vorinostat = compound: O=C(CCCCCCC(=O)Nc1ccccc1)NO [vorinostat]
In short: as §1

silmitasertib = compound: O=C(O)c1ccc2c(c1)nc(Nc1cccc(Cl)c1)c1ccncc12 [silmitasertib]
In short: as §1

[2] = compound: O=C1NC(=O)C(c2cnc3ccccn23)=C1c1cn2c3c(cc(F)cc13)CN(C(=O)N1CCCCC1)CC2
In short: as §1

entospletinib = compound: c1cn2cc(-c3ccc4cn[nH]c4c3)nc(Nc3ccc(N4CCOCC4)cc3)c2n1 [entospletinib]
In short: as §1

Measured: log2 fold change

SPTLC1 (UniProt O15269)
inactive: [1] -0.042 | vorinostat 0.119 | silmitasertib 0.012 | [2] 0.021 | entospletinib 0.02

SPR (UniProt P35270)
inactive: [1] -0.037 | vorinostat -0.199 | silmitasertib 0.308 | [2] 0.219 | entospletinib 0.003

SPOUT1 (UniProt Q5T280)
inactive: [1] 0.025 | vorinostat -0.195 | silmitasertib 0.051 | entospletinib -0.041

SRSF6 (UniProt Q13247)
inactive: [1] -0.122 | vorinostat 0.132 | silmitasertib 0.001 | [2] -0.204 | entospletinib 0.013

SPG21 (UniProt Q9NZD8)
inactive: [1] -0.035 | vorinostat 0.014 | silmitasertib -0.026 | [2] -0.102 | entospletinib -0.046

SPCS1, A0A5F9YFS9
inactive: [1] 0.044 | vorinostat 0.12 | silmitasertib -0.079 | [2] 0.034 | entospletinib 0.014

SPINDOC (UniProt Q9BUA3)
inactive: [1] 0.082 | vorinostat 0.041 | silmitasertib 0.003 | [2] -0.132 | entospletinib -0.104

SPTB isoform 2 (UniProt P11277)
inactive: [1] 0.002 | vorinostat -0.012 | silmitasertib 0.031 | [2] -0.008 | entospletinib 0.02

SPRTN (UniProt Q9H040)
inactive: [1] 0.108 | entospletinib -0.048

SRP14 (UniProt H0YLW0)
inactive: vorinostat 0.191 | silmitasertib -0.107 | [2] 0.37

SPRED1 (UniProt Q7Z699)
inactive: vorinostat 0.132 | silmitasertib -0.116 | entospletinib 0.026

SRRD (UniProt Q9UH36)
inactive: [2] -0.001

SPRYD3 (UniProt Q8NCJ5)
inactive: vorinostat -0.428 | silmitasertib 0.134 | [2] 0.061

SPICE1 (UniProt Q8N0Z3)
inactive: [1] -0.264 | vorinostat -0.27 | silmitasertib 0.298 | entospletinib 0.198

SS18L1 (UniProt O75177)
inactive: vorinostat -0.065 | silmitasertib -0.013 | [2] 0.007

STAG2 (UniProt Q8N3U4)
inactive: vorinostat -0.036 | silmitasertib -0.134 | [2] -0.102 | entospletinib 0.036

SREK1IP1 (UniProt Q8N9Q2)
inactive: vorinostat 0.009 | silmitasertib -0.01 | [2] -0.053 | entospletinib -0.035

SPRY2 (UniProt O43597)
inactive: vorinostat 0.158 | silmitasertib -0.238

STAG1 (UniProt Q8WVM7)
inactive: vorinostat 0.087 | silmitasertib 0.107 | [2] -0.001 | entospletinib 0.023

SPC24 (UniProt K7ESQ2)
inactive: [2] 0.123 | entospletinib -0.002

ST3GAL1 (UniProt Q11201)
inactive: [2] -0.169

SPRR2B (UniProt P35325)
inactive: vorinostat -0.069 | silmitasertib 0.05 | [2] 0.194 | entospletinib -0.019

SQOR (UniProt Q9Y6N5)
inactive: vorinostat 0.159 | silmitasertib 0.048 | [2] 0.102 | entospletinib -0.045

SRCIN1 (UniProt Q9C0H9)
inactive: vorinostat -0.211 | silmitasertib -0.062 | entospletinib -0.055

SREBF1 isoform 4 (UniProt P36956)
inactive: vorinostat 0.099 | silmitasertib 0.027 | [2] 0.06

2 records picked at random from the list so far, as already listed:
SRSF6 (UniProt Q13247)
inactive: [1] -0.122 | vorinostat 0.132 | silmitasertib 0.001 | [2] -0.204 | entospletinib 0.013

SPRR2B (UniProt P35325)
inactive: vorinostat -0.069 | silmitasertib 0.05 | [2] 0.194 | entospletinib -0.019

The results go on:

STAP1 (UniProt Q9ULZ2)
inactive: vorinostat -0.299 | silmitasertib 0.142

STAU1 isoform 3 (UniProt O95793)
inactive: vorinostat -0.076 | silmitasertib -0.103 | [2] -0.156

SPATA33 isoform 2 (UniProt Q96N06)
inactive: [1] -0.149 | entospletinib -0.105

SSX2IP (UniProt Q9Y2D8)
inactive: [1] 0.006 | entospletinib 0.079

STAB1 (UniProt Q9NY15)
inactive: vorinostat 0.442 | silmitasertib -0.002 | [2] 0.032

SPTAN1 isoform 3 (UniProt Q13813)
inactive: [1] -0.036 | [2] -0.074 | entospletinib -0.011

STARD8 isoform 2 (UniProt Q92502)
inactive: [2] -0.065 | entospletinib 0.064
